Article PMC6704105
These are yes or no findings as the source states them, for the method shown. Binding seen in cells or lysates may run through a third protein. Binding calls can cover weak binding; strength is not graded here. Where a sequence is shown, tags or fusion partners need not be part of it.

Target: T1, Human recombinant His-JDP2 protein (human) (UniProt Q8WYK2)
T1 sequence: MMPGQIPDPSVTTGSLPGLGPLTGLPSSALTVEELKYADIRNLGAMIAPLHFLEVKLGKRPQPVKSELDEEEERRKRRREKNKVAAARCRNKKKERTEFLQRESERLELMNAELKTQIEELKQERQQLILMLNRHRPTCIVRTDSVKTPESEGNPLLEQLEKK
Test: co-IP; in vitro binding assay: recombinant His-tagged JDP2 mixed with recombinant Histone 3 or Histone 4, precipitated with anti-His antibody; with Flag-immunoprecipitates from cells transfected with 0, 1.0 and 5.0 μg Flag-β-catenin plasmid; both purified

| binding | Substance |
| --- | --- |
| binds | recombinant Histone 3 |
| binds | recombinant Histone 4 |
